The supplement of paper PMC6411743
± gives the standard deviation of the averaged measurements. The list shows a part of the results.

Sequences of proteins named here, by UniProt entry; tags and fusion partners are left off. A change or cut given only in a name is not applied to a line headed by its entry.
UniProt Q9UKM9: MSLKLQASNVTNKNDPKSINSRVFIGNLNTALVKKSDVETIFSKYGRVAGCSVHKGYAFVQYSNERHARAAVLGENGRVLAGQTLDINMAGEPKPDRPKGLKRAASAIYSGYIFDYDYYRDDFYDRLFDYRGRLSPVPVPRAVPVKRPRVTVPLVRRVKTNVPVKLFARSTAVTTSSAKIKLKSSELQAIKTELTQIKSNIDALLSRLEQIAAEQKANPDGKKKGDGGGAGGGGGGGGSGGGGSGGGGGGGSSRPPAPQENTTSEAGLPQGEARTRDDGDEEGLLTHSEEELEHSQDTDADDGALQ
UniProt Q15788: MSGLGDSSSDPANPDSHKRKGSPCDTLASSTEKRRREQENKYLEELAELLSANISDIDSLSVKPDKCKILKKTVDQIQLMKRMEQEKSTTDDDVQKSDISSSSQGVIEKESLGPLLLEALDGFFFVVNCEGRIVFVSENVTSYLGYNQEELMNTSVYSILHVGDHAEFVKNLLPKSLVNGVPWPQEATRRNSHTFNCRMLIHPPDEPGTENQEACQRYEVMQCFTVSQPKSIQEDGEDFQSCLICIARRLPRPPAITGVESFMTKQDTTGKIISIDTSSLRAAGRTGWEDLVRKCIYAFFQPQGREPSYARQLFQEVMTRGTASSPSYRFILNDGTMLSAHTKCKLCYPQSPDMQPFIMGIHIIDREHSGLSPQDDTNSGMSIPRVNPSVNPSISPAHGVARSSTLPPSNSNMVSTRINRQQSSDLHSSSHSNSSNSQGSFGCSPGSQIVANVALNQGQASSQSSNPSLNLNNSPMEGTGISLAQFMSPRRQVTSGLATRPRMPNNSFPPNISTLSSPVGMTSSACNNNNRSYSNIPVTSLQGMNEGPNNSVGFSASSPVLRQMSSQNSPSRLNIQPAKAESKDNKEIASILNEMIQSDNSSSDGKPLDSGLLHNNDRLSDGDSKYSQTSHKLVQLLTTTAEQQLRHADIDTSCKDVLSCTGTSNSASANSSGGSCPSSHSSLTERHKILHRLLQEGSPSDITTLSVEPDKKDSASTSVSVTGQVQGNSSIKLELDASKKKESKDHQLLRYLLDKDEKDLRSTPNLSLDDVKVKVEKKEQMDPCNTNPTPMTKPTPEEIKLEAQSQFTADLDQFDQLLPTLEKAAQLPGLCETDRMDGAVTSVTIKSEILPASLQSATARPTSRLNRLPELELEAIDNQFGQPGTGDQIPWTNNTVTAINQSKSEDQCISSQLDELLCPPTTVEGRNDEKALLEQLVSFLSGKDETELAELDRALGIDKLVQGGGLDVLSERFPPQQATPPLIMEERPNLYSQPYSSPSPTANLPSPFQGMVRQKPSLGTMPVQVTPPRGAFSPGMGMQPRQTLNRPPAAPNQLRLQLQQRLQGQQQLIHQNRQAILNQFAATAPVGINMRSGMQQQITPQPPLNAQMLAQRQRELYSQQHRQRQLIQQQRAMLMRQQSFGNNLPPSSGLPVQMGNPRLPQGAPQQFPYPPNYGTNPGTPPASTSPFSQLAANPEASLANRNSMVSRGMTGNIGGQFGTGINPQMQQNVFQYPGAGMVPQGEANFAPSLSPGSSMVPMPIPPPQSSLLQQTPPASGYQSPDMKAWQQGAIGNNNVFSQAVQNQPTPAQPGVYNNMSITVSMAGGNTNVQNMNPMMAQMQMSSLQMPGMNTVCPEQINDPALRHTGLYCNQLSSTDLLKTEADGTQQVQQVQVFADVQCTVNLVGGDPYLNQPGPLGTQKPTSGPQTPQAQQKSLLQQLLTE
UniProt Q16644, whole entry, looked up: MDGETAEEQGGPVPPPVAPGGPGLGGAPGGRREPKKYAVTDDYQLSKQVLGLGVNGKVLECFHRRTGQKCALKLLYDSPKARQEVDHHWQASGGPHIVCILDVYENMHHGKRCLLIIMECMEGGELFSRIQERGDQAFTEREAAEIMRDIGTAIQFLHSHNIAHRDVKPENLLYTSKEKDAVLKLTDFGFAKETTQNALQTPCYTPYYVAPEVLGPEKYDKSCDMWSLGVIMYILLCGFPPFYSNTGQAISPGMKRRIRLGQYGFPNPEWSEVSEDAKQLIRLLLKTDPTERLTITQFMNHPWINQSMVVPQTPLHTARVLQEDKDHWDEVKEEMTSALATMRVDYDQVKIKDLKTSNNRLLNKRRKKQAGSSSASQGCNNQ
UniProt Q15121, whole entry: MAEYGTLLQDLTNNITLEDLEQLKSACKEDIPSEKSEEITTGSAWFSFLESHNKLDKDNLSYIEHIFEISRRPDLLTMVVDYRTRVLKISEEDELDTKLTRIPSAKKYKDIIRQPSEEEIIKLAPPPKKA
UniProt Q16513: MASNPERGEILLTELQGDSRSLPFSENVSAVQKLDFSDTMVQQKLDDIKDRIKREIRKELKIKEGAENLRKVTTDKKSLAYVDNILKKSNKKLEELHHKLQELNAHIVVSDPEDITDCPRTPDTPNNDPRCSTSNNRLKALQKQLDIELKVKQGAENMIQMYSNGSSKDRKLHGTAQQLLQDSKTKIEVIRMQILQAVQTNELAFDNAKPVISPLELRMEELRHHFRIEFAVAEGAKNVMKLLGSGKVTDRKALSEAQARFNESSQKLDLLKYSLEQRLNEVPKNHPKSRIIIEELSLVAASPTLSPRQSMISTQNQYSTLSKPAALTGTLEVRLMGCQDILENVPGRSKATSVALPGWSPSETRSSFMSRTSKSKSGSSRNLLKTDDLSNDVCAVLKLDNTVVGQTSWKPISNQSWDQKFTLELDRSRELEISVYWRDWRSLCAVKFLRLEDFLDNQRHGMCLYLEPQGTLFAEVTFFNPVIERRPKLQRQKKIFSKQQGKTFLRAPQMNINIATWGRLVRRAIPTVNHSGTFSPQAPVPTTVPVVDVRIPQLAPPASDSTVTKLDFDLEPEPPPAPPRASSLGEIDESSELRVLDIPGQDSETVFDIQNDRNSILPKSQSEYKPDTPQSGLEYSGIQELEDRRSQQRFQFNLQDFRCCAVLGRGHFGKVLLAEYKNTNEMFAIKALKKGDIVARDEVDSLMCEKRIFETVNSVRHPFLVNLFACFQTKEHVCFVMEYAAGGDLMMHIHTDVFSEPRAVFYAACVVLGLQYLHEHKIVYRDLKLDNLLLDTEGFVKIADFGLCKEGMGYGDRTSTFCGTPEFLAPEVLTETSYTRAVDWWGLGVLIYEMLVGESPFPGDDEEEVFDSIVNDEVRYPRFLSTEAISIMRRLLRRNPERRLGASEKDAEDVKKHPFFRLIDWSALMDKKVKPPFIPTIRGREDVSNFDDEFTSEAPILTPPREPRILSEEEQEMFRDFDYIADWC
UniProt Q147X3: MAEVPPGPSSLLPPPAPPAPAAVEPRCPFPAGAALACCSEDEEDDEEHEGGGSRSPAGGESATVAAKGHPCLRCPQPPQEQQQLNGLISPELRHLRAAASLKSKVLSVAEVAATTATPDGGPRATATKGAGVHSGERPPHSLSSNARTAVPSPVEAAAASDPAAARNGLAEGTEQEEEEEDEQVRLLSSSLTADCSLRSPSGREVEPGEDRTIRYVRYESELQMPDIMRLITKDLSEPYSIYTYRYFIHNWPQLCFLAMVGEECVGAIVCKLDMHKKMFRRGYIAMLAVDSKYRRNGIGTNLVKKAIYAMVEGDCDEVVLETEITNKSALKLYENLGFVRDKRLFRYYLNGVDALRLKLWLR
UniProt Q15223: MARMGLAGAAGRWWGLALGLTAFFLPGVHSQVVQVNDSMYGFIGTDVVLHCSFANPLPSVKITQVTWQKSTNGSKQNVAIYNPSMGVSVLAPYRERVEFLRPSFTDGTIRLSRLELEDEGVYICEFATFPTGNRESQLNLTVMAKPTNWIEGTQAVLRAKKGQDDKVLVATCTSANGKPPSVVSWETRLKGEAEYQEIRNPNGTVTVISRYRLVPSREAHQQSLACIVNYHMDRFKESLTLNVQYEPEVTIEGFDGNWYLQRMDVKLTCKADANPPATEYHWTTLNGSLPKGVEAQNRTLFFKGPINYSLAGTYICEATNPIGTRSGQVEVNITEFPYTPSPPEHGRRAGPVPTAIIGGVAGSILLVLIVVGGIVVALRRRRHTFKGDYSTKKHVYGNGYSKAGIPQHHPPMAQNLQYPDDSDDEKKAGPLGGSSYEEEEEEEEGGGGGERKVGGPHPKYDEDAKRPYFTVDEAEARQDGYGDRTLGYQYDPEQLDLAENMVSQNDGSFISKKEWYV
UniProt Q15363: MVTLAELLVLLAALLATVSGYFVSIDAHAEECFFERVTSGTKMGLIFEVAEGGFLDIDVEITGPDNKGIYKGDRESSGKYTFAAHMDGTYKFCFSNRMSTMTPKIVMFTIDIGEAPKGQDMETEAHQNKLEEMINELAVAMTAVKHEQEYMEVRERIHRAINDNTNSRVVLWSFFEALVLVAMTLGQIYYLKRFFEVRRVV
UniProt Q2KHT3: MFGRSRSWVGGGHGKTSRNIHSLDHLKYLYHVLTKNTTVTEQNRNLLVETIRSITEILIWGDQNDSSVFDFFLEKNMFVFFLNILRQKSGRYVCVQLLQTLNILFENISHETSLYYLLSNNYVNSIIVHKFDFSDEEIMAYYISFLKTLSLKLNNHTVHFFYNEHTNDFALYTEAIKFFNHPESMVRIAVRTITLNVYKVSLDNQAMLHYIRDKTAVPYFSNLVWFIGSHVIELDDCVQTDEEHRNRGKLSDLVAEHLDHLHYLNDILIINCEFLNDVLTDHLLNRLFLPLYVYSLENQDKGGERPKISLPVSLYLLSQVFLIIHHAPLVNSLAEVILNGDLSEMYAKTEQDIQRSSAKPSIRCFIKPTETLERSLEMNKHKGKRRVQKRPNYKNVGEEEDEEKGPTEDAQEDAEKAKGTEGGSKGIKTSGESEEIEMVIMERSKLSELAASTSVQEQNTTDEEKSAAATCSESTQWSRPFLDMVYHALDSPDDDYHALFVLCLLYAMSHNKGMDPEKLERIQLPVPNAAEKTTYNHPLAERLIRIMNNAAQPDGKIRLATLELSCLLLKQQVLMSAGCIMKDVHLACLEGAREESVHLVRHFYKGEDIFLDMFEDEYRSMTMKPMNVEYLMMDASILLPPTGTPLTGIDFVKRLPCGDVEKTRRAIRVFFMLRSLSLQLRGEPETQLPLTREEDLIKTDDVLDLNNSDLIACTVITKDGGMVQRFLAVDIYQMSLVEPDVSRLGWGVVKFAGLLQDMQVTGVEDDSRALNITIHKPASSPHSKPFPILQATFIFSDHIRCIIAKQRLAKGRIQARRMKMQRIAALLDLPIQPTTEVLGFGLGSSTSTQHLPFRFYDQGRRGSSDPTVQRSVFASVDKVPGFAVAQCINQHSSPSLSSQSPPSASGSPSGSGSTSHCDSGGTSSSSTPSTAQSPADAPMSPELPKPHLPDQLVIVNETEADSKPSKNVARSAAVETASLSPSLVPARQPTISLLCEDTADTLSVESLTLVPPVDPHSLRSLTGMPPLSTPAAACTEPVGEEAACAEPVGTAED
UniProt Q15181: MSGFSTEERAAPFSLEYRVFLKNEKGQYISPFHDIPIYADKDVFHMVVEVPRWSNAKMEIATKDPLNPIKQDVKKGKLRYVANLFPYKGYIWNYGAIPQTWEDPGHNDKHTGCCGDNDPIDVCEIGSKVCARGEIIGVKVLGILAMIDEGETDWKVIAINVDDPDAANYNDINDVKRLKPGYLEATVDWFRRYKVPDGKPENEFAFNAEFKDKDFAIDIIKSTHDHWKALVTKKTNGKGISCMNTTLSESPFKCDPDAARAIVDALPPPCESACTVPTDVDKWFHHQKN
UniProt Q16762: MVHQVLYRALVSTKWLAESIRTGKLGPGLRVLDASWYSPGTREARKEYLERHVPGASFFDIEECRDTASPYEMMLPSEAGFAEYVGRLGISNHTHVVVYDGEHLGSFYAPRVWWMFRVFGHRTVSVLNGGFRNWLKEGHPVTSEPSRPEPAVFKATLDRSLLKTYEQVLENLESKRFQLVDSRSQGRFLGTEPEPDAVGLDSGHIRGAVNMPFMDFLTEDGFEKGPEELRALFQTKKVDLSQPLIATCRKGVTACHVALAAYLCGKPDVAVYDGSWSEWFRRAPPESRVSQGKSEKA
UniProt Q15404: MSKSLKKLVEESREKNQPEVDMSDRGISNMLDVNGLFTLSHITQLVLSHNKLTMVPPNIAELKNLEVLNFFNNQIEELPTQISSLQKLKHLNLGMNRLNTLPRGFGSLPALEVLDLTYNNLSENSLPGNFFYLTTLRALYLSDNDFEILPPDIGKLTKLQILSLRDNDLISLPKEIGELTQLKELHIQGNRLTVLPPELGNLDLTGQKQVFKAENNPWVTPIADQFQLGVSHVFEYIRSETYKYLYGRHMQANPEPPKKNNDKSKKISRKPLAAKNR
UniProt Q15527: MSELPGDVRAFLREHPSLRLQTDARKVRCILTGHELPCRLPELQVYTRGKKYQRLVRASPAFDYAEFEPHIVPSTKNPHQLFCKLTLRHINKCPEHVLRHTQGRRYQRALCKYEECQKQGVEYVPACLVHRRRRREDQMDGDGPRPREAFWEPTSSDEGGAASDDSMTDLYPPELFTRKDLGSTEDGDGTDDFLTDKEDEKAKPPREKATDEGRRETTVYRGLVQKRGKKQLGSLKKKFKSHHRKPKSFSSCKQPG

Compound: Nc1nc2c(ncn2[C@@H]2O[C@H](COP(=O)(O)OP(=O)(O)OP(=O)(O)O)[C@@H](O)[C@H]2O)c(=O)[nH]1 [guanosine triphosphate]
Assay: NP40-soluble protein abundance relative to vehicle (solubility fold change) (ratio); higher = more soluble protein in presence of GTP
In short: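 Across three independent experiments, values are fold changes against the detergent-processed vehicle for each replicate, based on vsn-normalised intensities. The samples were Jurkat crude lysate treated with eight concentrations (0.1 to 10 mM) for 10 min at room temperature and then 3 min at 37 °C. Lysate was solubilised with 0.8% NP40 and benzonase, ultracentrifuged, and the supernatant analysed by TMT-labelled LC-MS/MS.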

| Target | NP40-soluble protein abundance (concentration: 0.1mM) | NP40-soluble protein abundance (concentration: 0.5mM) | NP40-soluble protein abundance (concentration: 1mM) | NP40-soluble protein abundance (concentration: 2mM) | NP40-soluble protein abundance (concentration: 4mM) | NP40-soluble protein abundance (concentration: 6mM) | NP40-soluble protein abundance (concentration: 8mM) | NP40-soluble protein abundance (concentration: 10mM) |
| --- | --- | --- | --- | --- | --- | --- | --- | --- |
| Q5QPL9 and related entries (UniProt Q9UKM9) | 0.927 ± 0.04 | 1 ± 0.025 | 1.07 ± 0.14 | 1.07 ± 0.2 | 1.07 ± 0.28 | 1.05 ± 0.25 | 1.01 ± 0.24 | 0.949 ± 0.23 |
| C5orf22 (UniProt Q49AR2) | 1.02 ± 0.078 | 0.998 ± 0.087 | 1.03 ± 0.14 | 0.967 ± 0.15 | 0.976 ± 0.14 | 0.952 ± 0.14 | 0.966 ± 0.096 | 0.946 ± 0.15 |
| PCK2 (UniProt Q16822) | 1.01 ± 0.059 | 0.971 ± 0.05 | 0.94 ± 0.084 | 0.929 ± 0.028 | 0.906 ± 0.032 | 0.897 ± 0.032 | 0.869 ± 0.094 | 0.867 ± 0.067 |
| UniProt Q15788 and related entries | 1.03 ± 0.063 | 0.979 ± 0.03 | 0.976 ± 0.083 | 0.928 ± 0.077 | 0.973 ± 0.04 | 0.985 ± 0.052 | 0.988 ± 0.055 | 0.96 ± 0.084 |
| MAPKAPK3 (UniProt Q16644) | 0.971 ± 0.087 | 0.964 ± 0.065 | 0.935 ± 0.1 | 0.894 ± 0.11 | 0.875 ± 0.089 | 0.874 ± 0.088 | 0.887 ± 0.082 | 0.881 ± 0.096 |
| UniProt Q5T5C0 and related entries | 0.984 ± 0.015 | 1.08 ± 0.016 | 1 ± 0.1 | 0.966 ± 0.056 | 0.962 ± 0.0053 | 0.977 ± 0.12 | 1.03 ± 0.088 | 1 ± 0.033 |
| E2F4 (UniProt Q16254) | 1.07 ± 0.053 | 1 ± 0.068 | 1.08 ± 0.074 | 1.08 ± 0.096 | 1.07 ± 0.074 | 1.08 ± 0.092 | 1.1 ± 0.032 | 1.1 ± 0.073 |
| UniProt Q15121 and related entries | 0.969 ± 0.25 | 0.983 ± 0.1 | 1.06 ± 0.2 | 0.946 ± 0.14 | 0.924 ± 0.034 | 1.03 ± 0.21 | 1 ± 0.13 | 1.07 ± 0.024 |
| UniProt Q5T8P6 and related entries | 1.02 ± 0.025 | 1.12 ± 0.058 | 1.12 ± 0.056 | 1.09 ± 0.058 | 1.07 ± 0.052 | 1.09 ± 0.044 | 1.11 ± 0.096 | 1.08 ± 0.074 |
| UniProt Q16513 and related entries | 1.05 ± 0.039 | 1.013 ± 0.0083 | 0.96 ± 0.071 | 0.942 ± 0.046 | 0.936 ± 0.07 | 0.949 ± 0.07 | 0.96 ± 0.029 | 0.903 ± 0.096 |
| UniProt Q147X3 and related entries | 0.987 ± 0.19 | 0.98 ± 0.13 | 0.963 ± 0.12 | 0.929 ± 0.12 | 0.957 ± 0.094 | 0.934 ± 0.12 | 0.855 ± 0.044 | 0.925 ± 0.19 |
| HNRNPUL2 (UniProt Q1KMD3) | 1.05 ± 0.083 | 1.14 ± 0.17 | 1.18 ± 0.22 | 1.27 ± 0.28 | 1.31 ± 0.33 | 1.29 ± 0.32 | 1.28 ± 0.31 | 1.22 ± 0.3 |
| UniProt Q15223 | 1.14 ± 0.15 | 1.02 ± 0.13 | 1.02 ± 0.13 | 1.08 ± 0.13 | 1.04 ± 0.15 | 0.959 ± 0.13 | 1.06 ± 0.12 | 0.979 ± 0.18 |
| UniProt Q15742 and related entries | 1.02 ± 0.044 | 1.06 ± 0.015 | 1.03 ± 0.15 | 1.03 ± 0.15 | 0.998 ± 0.17 | 1.02 ± 0.14 | 0.972 ± 0.09 | 0.985 ± 0.043 |
| UniProt Q32MZ4 and related entries | 0.933 ± 0.06 | 0.955 ± 0.098 | 0.981 ± 0.061 | 0.962 ± 0.11 | 0.922 ± 0.061 | 0.959 ± 0.083 | 0.981 ± 0.061 | 1 ± 0.073 |
| UniProt Q16630 and related entries | 1.16 ± 0.012 | 1.64 ± 0.098 | 1.95 ± 0.22 | 2.23 ± 0.3 | 2.49 ± 0.41 | 2.58 ± 0.45 | 2.71 ± 0.58 | 2.75 ± 0.56 |
| TMED2 (UniProt Q15363) | 1.04 ± 0.061 | 1.03 ± 0.032 | 0.894 ± 0.056 | 0.894 ± 0.095 | 0.89 ± 0.055 | 0.862 ± 0.057 | 0.841 ± 0.12 | 0.812 ± 0.14 |
| UniProt Q16576 and related entries | 0.908 ± 0.072 | 0.972 ± 0.11 | 0.91 ± 0.066 | 0.927 ± 0.098 | 0.901 ± 0.1 | 0.891 ± 0.078 | 0.918 ± 0.11 | 0.952 ± 0.099 |
| UniProt Q2KHT3 and related entries | 0.937 ± 0.024 | 0.969 ± 0.016 | 0.963 ± 0.055 | 0.982 ± 0.08 | 0.957 ± 0.12 | 0.954 ± 0.097 | 0.968 ± 0.079 | 0.959 ± 0.11 |
| PPA1 (UniProt Q15181) | 0.919 ± 0.035 | 0.963 ± 0.024 | 0.912 ± 0.054 | 0.877 ± 0.056 | 0.859 ± 0.05 | 0.893 ± 0.052 | 0.866 ± 0.044 | 0.852 ± 0.054 |
| ARID4B (UniProt Q4LE39) | 1 ± 0.027 | 1.01 ± 0.022 | 1.06 ± 0.017 | 1.05 ± 0.02 | 1.074 ± 0.0032 | 1.08 ± 0.018 | 1.13 ± 0.098 | 1.13 ± 0.074 |
| UniProt Q5T3J3 | 1.05 ± 0.038 | 0.982 ± 0.022 | 1.19 ± 0.074 | 1.233 ± 0.01 | 1.32 ± 0.036 | 1.36 ± 0.019 | 1.49 ± 0.12 | 1.59 ± 0.1 |
| TST (UniProt Q16762) | 1.02 ± 0.079 | 1.06 ± 0.042 | 0.967 ± 0.033 | 0.932 ± 0.057 | 0.878 ± 0.042 | 0.915 ± 0.049 | 0.927 ± 0.069 | 0.867 ± 0.046 |
| RSU1 (UniProt Q15404) | 0.937 ± 0.047 | 0.941 ± 0.027 | 0.97 ± 0.013 | 0.941 ± 0.024 | 0.915 ± 0.031 | 0.932 ± 0.02 | 0.882 ± 0.04 | 0.925 ± 0.01 |
| UniProt Q15120 and related entries | 1.14 ± 0.17 | 1.21 ± 0.28 | 1.27 ± 0.31 | 1.29 ± 0.34 | 1.39 ± 0.34 | 1.31 ± 0.36 | 1.33 ± 0.33 | 1.24 ± 0.28 |
| Q1RLN5 and related entries (UniProt Q8IWW6) | 1 ± 0.046 | 0.953 ± 0.034 | 0.975 ± 0.021 | 0.956 ± 0.03 | 0.995 ± 0.073 | 0.959 ± 0.055 | 1.07 ± 0.06 | 1.03 ± 0.068 |
| DNTTIP2 (UniProt Q5QJE6) | 0.976 ± 0.066 | 1.06 ± 0.076 | 1.13 ± 0.11 | 1.15 ± 0.13 | 1.19 ± 0.14 | 1.26 ± 0.15 | 1.3 ± 0.12 | 1.3 ± 0.093 |
| SURF2 (UniProt Q15527) | 0.934 ± 0.072 | 0.967 ± 0.091 | 0.989 ± 0.025 | 0.988 ± 0.088 | 0.998 ± 0.079 | 1.03 ± 0.064 | 1.09 ± 0.063 | 1.08 ± 0.083 |
| TSR1 (UniProt Q2NL82) | 1.01 ± 0.034 | 1.01 ± 0.093 | 0.975 ± 0.15 | 1.01 ± 0.14 | 0.969 ± 0.2 | 0.938 ± 0.2 | 0.931 ± 0.24 | 0.912 ± 0.25 |
| UniProt Q16643 and related entries | 0.894 ± 0.061 | 0.888 ± 0.11 | 0.903 ± 0.11 | 0.905 ± 0.11 | 1.08 ± 0.1 | 1.24 ± 0.11 | 1.52 ± 0.15 | 1.81 ± 0.12 |

Quoted from the entries so far for reference:

| Target | NP40-soluble protein abundance (concentration: 0.1mM) | NP40-soluble protein abundance (concentration: 0.5mM) | NP40-soluble protein abundance (concentration: 1mM) | NP40-soluble protein abundance (concentration: 2mM) | NP40-soluble protein abundance (concentration: 4mM) | NP40-soluble protein abundance (concentration: 6mM) | NP40-soluble protein abundance (concentration: 8mM) | NP40-soluble protein abundance (concentration: 10mM) |
| --- | --- | --- | --- | --- | --- | --- | --- | --- |
| TST (UniProt Q16762) | 1.02 ± 0.079 | 1.06 ± 0.042 | 0.967 ± 0.033 | 0.932 ± 0.057 | 0.878 ± 0.042 | 0.915 ± 0.049 | 0.927 ± 0.069 | 0.867 ± 0.046 |
| RSU1 (UniProt Q15404) | 0.937 ± 0.047 | 0.941 ± 0.027 | 0.97 ± 0.013 | 0.941 ± 0.024 | 0.915 ± 0.031 | 0.932 ± 0.02 | 0.882 ± 0.04 | 0.925 ± 0.01 |
